Read-outs that look alike come from different tables or passages of the source. No constants are given. Whether binding was seen depends on the method and setting. In cells and extracts the contact can be indirect. Some results given as binding are weak or reduced against the parent protein; the word gives no strength.
Assays:
Test in all cases: FRET or BRET
[1] = molecular target: hGHSR1a^WT-RLuc8 (N-terminally 3xHA-tagged human growth hormone secretagogue receptor 1a, wild type, fused to RLuc8) (human) (UniProt Q92847)
[2] = molecular target: hGHSR1a^WT-RLuc8 (N-terminally 3xHA-tagged human growth hormone secretagogue receptor 1a, wild type, fused to RLuc8) (human) (UniProt Q92847); remark: listed apart in the source
[3] = molecular target: hGHSR1a^WT-RLuc8 (N-terminally 3xHA-tagged human growth hormone secretagogue receptor 1a, wild type, fused to RLuc8) (human) (UniProt Q92847); remark: listed apart in the source

Protein sequences, listed by entry. Tags and fused reporters are not part of them. Lines headed by an entry give the natural chain unless they say otherwise; changes in a name come on top.
UniProt Q92847: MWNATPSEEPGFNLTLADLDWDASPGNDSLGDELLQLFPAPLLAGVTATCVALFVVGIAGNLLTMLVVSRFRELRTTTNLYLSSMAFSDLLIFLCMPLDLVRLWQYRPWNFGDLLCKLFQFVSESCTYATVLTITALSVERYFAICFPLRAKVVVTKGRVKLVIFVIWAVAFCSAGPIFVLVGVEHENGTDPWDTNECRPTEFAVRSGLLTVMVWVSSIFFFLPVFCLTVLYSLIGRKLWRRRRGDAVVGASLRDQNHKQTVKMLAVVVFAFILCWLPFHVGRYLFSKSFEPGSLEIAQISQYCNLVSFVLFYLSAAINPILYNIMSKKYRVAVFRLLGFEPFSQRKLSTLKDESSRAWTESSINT
UniProt P34947: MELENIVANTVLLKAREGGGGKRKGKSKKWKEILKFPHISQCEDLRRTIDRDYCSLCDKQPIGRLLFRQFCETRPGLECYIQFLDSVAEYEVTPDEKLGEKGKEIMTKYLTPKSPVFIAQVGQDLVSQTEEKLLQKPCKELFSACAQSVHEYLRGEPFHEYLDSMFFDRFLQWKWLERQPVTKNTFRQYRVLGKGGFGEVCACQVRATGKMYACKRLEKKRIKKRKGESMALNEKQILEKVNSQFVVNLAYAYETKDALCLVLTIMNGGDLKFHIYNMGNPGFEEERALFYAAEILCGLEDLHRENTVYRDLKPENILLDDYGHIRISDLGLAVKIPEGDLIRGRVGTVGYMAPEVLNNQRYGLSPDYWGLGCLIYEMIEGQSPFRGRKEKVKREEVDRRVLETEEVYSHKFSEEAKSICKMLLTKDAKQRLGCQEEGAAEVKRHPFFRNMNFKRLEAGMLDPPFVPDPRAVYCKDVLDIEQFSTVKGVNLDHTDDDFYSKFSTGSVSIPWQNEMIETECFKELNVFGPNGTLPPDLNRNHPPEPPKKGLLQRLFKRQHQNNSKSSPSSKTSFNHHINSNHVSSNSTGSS
UniProt P25098: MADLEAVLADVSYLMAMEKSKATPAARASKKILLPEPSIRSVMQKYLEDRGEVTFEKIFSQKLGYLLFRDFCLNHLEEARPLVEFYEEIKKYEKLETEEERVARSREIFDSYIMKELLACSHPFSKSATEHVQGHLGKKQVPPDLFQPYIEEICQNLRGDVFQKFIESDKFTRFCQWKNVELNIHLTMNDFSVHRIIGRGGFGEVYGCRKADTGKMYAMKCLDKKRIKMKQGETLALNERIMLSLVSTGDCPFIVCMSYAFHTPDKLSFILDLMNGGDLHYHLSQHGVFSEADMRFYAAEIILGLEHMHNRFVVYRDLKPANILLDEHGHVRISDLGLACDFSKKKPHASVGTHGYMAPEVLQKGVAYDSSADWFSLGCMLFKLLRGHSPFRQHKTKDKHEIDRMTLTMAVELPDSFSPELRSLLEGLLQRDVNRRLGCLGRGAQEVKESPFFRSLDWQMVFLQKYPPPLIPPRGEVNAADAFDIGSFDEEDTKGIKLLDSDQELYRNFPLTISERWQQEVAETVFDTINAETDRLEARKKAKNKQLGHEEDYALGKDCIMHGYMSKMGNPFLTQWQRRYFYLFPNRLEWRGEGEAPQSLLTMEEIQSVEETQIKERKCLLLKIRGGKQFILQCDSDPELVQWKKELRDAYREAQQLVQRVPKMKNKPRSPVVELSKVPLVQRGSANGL
UniProt P43250: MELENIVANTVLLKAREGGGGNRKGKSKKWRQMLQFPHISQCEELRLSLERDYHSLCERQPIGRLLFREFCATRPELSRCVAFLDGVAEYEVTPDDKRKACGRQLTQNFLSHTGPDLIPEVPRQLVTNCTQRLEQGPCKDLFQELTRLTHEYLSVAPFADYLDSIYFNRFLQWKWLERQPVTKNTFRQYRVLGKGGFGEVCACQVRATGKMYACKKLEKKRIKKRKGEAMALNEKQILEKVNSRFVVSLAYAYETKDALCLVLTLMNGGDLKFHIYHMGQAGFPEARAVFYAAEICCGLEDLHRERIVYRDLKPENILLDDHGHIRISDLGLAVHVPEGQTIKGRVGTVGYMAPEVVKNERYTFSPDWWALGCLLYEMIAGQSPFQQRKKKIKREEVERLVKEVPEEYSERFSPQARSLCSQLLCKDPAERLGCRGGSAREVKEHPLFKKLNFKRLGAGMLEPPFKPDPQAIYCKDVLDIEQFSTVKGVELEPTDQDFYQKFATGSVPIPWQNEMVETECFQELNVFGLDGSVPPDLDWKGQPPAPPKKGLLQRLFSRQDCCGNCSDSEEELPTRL
UniProt P49407: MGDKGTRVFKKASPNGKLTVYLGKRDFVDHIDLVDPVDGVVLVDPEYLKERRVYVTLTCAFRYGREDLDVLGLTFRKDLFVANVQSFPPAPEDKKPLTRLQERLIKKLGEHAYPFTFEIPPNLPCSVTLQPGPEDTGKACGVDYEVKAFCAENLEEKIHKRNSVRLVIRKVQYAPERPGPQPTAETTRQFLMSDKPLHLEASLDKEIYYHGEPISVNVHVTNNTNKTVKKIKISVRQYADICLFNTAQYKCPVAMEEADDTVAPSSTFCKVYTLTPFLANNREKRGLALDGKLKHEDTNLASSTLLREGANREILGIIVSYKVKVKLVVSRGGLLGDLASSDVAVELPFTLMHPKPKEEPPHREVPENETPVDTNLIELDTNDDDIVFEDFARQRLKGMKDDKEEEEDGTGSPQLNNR

Substance: N-terminally mVenus-tagged human βarr2 (β-arrestin 2) (from UniProt P32121 1-409)
- binding [1]: binds
- binding [2]: binds weakly
- binding [3]: binds

Substance: GRK5-YFP (G protein-coupled receptor kinase 5) (from UniProt P34947 1-590) (enzyme)
- binding [3]: binds

Substance: YFP-tagged WT-GRK2 (GRK2^WT-YFP; G protein-coupled receptor kinase 2) (from UniProt P25098 1-689) (enzyme)
- binding [3]: binds

Substance: GRK2^ΔV661-ct (truncated GRK2, YFP-tagged) (from UniProt P25098 1-660) (domain or fragment)
- binding [3]: binds

Substance: GRK6-YFP (G protein-coupled receptor kinase 6) (from UniProt P43250 1-576) (enzyme)
- binding [3]: binds

Substance: N-terminally mVenus-tagged human βarr1 (β-arrestin 1) (from UniProt P49407 1-418)
- binding [1]: binds
- binding [2]: binds weakly
- binding [3]: binds

Source: paper doi:10.1101/2025.03.11.642421
